Reference: paper PMC4303145
Results are given in words; binding and its absence hold for the method and conditions named. Binding seen in cells or lysates may run through a third protein.

Amino acid sequences for entries named in this document (tags omitted).
UniProt Q8TED9: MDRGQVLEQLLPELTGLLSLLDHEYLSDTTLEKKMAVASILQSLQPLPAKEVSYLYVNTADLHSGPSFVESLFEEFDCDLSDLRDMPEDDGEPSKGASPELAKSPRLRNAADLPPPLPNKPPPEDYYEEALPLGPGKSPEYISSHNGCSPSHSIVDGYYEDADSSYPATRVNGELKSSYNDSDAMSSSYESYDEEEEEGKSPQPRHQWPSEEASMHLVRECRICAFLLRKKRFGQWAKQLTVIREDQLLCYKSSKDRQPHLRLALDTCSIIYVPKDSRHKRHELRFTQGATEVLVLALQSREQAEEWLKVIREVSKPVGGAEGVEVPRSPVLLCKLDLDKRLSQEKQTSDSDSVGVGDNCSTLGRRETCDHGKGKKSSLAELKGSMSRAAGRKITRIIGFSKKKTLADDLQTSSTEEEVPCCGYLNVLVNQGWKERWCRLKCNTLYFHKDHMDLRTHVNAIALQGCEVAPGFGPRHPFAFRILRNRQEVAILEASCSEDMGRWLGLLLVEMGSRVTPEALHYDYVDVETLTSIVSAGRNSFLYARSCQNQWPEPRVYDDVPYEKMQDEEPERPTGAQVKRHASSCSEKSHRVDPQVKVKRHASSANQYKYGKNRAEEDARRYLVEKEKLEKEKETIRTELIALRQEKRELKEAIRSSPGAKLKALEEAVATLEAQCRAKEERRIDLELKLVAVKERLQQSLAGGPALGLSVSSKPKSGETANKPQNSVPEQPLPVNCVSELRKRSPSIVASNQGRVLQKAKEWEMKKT
UniProt Q05397: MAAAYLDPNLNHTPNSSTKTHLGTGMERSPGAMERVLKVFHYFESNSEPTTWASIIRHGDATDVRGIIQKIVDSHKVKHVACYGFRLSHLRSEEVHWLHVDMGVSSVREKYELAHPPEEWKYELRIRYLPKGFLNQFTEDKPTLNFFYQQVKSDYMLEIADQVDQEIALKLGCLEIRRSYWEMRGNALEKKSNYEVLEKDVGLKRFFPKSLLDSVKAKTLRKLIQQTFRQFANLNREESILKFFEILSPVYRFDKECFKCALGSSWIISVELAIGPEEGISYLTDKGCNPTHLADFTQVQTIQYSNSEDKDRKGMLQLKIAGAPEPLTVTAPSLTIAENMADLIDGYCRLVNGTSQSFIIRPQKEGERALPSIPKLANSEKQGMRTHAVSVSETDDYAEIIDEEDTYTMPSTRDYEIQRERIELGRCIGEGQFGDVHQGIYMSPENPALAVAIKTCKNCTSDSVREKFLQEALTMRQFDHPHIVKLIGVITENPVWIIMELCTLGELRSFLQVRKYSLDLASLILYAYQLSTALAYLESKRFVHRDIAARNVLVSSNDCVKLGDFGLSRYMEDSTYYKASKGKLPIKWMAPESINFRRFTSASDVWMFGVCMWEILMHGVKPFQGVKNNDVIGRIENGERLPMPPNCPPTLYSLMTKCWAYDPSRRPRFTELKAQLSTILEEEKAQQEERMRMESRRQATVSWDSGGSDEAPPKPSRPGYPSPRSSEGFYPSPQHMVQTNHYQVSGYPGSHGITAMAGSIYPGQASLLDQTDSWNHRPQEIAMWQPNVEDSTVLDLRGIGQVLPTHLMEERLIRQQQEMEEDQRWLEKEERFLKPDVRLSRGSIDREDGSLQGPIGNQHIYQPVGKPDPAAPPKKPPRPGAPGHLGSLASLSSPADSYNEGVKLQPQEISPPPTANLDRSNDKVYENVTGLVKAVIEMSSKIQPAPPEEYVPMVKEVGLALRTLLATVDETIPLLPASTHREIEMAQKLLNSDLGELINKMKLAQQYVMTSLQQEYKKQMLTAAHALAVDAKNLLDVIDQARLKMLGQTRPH
UniProt P49023: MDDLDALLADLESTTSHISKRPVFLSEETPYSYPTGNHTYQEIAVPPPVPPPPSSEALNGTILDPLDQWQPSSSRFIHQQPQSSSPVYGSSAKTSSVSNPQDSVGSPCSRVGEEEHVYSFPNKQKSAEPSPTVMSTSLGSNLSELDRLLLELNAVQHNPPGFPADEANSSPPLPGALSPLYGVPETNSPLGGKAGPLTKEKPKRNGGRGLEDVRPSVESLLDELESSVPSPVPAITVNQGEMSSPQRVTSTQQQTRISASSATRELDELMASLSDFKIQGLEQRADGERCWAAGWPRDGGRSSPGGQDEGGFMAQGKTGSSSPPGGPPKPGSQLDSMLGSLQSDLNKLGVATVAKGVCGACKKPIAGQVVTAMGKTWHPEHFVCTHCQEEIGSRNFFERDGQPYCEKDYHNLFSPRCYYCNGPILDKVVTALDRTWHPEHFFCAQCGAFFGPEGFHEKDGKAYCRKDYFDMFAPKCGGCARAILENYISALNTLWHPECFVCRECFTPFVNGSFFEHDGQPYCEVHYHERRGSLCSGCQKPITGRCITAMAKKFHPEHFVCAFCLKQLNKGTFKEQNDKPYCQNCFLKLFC

Target: endogenous AFAP1L1 (human (endogenous in LoVo)) (UniProt Q8TED9)
Assay: co-IP; LoVo whole cell lysates, endogenous proteins; immunoprecipitated with the anti-AFAP1L1 Ab, immunoblotted with Abs against vinculin or other invadopodia or focal adhesion proteins

Row | Substance | binding
1 | endogenous focal adhesion kinase (FAK) (from UniProt Q05397 1-1052) | no binding
2 | endogenous paxillin (from UniProt P49023 1-591) | no binding
